4 molecules from US20180230232A1 (VIB VZW, published 2018) can be followed below.

Sequences of proteins named here, by UniProt entry; tags and fusion partners are left off. Residues count along the entry.
UniProt P56818, residues 46-457: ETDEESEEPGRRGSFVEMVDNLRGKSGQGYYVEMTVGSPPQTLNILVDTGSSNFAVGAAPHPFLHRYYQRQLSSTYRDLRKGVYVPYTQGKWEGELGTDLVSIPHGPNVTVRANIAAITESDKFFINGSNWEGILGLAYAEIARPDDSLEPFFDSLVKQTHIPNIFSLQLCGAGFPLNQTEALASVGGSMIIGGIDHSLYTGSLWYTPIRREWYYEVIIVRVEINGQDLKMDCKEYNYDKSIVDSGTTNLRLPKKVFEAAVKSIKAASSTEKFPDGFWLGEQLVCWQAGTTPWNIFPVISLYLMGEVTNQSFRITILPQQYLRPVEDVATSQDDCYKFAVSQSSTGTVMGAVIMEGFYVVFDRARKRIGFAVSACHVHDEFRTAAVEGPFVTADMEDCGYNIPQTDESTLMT
UniProt P56817, residues 22-457: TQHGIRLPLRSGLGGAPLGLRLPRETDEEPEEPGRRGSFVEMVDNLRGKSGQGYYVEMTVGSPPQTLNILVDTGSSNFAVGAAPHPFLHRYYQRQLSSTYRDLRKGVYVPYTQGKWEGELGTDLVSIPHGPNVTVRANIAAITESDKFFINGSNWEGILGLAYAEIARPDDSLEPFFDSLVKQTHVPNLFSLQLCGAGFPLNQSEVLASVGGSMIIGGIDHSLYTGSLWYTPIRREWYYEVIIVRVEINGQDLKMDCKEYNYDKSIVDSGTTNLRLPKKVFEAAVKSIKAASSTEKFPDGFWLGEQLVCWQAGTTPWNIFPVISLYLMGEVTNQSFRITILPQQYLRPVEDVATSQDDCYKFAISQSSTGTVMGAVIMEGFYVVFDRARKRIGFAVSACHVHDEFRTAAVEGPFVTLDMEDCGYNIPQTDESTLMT

No constants are given. Whether binding was seen depends on the method and setting. Some binding calls cover weakened binding; strength is not graded here.

One assay concerns the target mouse BACE1 (mouse) (UniProt P56818). Description: SPR (Biacore), pH 7.0 and pH 4.5.
The target of assay [1] is human BACE1 ectodomain (human) (UniProt P56817). Description: phage ELISA and periplasmic extract ELISA on coated BACE1 ectodomain.

B1: NANOBODY 10C4 (Nb_10C4) (VHH)
VHH: QVQLQESGGGSVQAGGFLRLSCAASGYTYSTCSMAWYRQAPGKERELVSSIRNDGSTAYADSVKGRFTISQDNAKNTVYLQMNSLKPEDTAMYYCNIRIGVGPGGTCSIYAPYWGEGTQVTVSS
notes: from the dromedary libraries; purified from pHEN6; not shown: C-terminal his6-tag (pHEN6)
As to B1, the binding entry (with mouse BACE1 (mouse); in assay [1]) was “binds” throughout.

B2: NANOBODY 1B3 (Nb_1B3) (VHH, not shown: small tags and cut ends)
VHH: QVQLQESGGGSVQAGGSLRLSCAASEYTDSTYYMAWFRQAPGKERGGVATLASRYDTTYYADSVKGRFTISQDRAKNTVYLQMNSLKPEDTGIYYCAASPRRPGFFPLDPSQYNYWGQGTQVTVSS
Regarding B2, the binding result in assay [1] is on record as “binds”.

B3: NANOBODY 4A2 (Nb_4A2) (VHH)
VHH: QVQLQESGGGLVQPGGSLRLSCAASGFTFETQYMTWVRQAPGKGPEYVSSINSGGTIKYYANSSVKGRFTISRDNAKNTLYLQMNNLRPEDTAIYYCQLGQWAGVGAASSRGQGTQVTVSS
notes: from the llama library; purified from pHEN6; not shown: C-terminal his6-tag (pHEN6)
Regarding B3, the binding entry (in the assay with mouse BACE1 (mouse); in assay [1]) was “binds” each time.

B4: NANOBODY B9 (Nb_B9) (VHH)
VHH: DVQLQESGGGSVQAGGSLRLSCAASEYTYGYCSMGWYRQAPGKERELVSTITSDGSTSYVDSVKGRFTISQDNAKNTVYLQMNSLKPEDTAKYYCYTKTCANKLGAKFISWGQGTQVTVSS
notes: dromedary VHH; his-tagged from E. coli; HA-tagged periplasmic extract in the ELISA screen; also called VHH B9; not shown: C-terminal his6-tag (pHEN6)
For the molecule B4, the binding result in the assay with mouse BACE1 (mouse) is given as “binds”.
